In PubChem BioAssay AID493014 (National Center for Advancing Translational Sciences (NCATS), 2011):
Values joined by “and” are separate entries in the source; they are usually repeats but may differ in a detail not shown here. Identical values can stand only once. The list shows a part of the results. These are further read-outs of the screen, such as a control signal, another cell line or another target. No call is given for them. Most of these compounds were active or inconclusive in the main read-out, so they are no random draw. Words in brackets tell the shape of the fitted curve; partial curves, single points and poor fits give uncertain potencies.

Experiment: qHTS Assay to Find Inhibitors of Chronic Active B-Cell Receptor Signaling
Settings: ABC-DLBCL IkBa-CBG/CBR reporter, luminescence ratio (green luciferase fused to IkBa over red control in TMD8 lymphoma cells), 4 h
Outline: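 Concentration-response series (up to 46 uM) were applied to TMD8 dual-reporter cells for 4 h at 37C with doxycycline. Green/red ratio, after filter-overlap correction, defined %Activity; red signal alone was normalised to basal cells and zero luminescence.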

[1] = measured here: CBR red luminescence, cell number
[2] = measured here: IkBa-CBG green luminescence

Compound | AC50 [1] | AC50 [2]
c1ccc(-c2nc(NCc3cccnc3)c3ccccc3n2)cc1 | 25.1 µM [falling, single point] | 
Cc1nn(-c2nc3ccccc3s2)c(C)c1Oc1ccccc1O | 29.1 µM [rising, single point] | 
O=C(c1ccc(S(=O)(=O)Cc2ccccc2Cl)c([N+](=O)[O-])c1)N1CCOCC1 | 10 µM [falling, partial curve, poor fit] | 
COC(=O)N1CCN(c2ccc(C)c(C)c2)CC1 | 20 µM [rising, single point] | 
O=C1C(NS(=O)(=O)c2cccs2)=C(N2CCOCC2)C(=O)c2ccccc21 | 1.58 µM [rising, partial curve, poor fit] | 
C[C@H]1CCC[C@]2(C)C[C@H]3OC(=O)C(CN4CCCCCC4)[C@H]3C=C12 (some centres not stated) | 17.8 µM [falling, partial curve, poor fit] | 
CCOc1cc(S(=O)(=O)NCCc2ccc(OC)c(OC)c2)c(OCC)cc1-n1cnnn1 | 0.82 µM [rising, partial curve, poor fit] | 
CSc1nsc2nc(=O)c(/C=C3\C(C)=Nc4ccccc43)c(N)n12 | 14.1 µM [falling, partial curve] | 
Cc1ccnc(Nc2nc3ccccc3o2)n1 | 23.1 µM [falling, partial curve] | 
O=C1CC(c2c[nH]c3ccccc23)C(=O)N1c1ccccc1 (configuration not stated) | 0.259 µM [falling, full curve] | 
Cc1ccc(Cl)cc1-n1ncc2c(Nc3ccc4c(c3)OCCO4)ncnc21 | 11.2 µM [rising, partial curve, poor fit] | 
Cc1ccc2nc(NC(=O)CN3C(=O)NC4(CCCCC4)C3=O)sc2c1 | 8.2 µM [falling, partial curve] | 
NC(=O)C1CCN(c2ncnc3c(-c4ccccc4)nsc23)CC1 | 4.11 µM [rising, single point] | 
O=Cc1sc(Nc2ccccc2)nc1Cl | 11.2 µM [falling, partial curve, poor fit] | 
Cc1nn(-c2ccccc2)c(C)c1C(=O)OCC(=O)N(C)c1ccccc1 | 7.31 µM [falling, partial curve, poor fit] | 
COc1ccc(NC(=O)Nc2ccccc2OC)cc1 | 4.61 µM [falling, partial curve] | 
CCOc1cccc(-c2c(C(=O)N/N=C/c3c(F)cccc3Cl)nnn2-c2nonc2N)c1 | 35.5 µM [falling, single point] | 
COc1ccc(Cn2c3nc4ccccc4nc3c3c(=O)n(Cc4ccco4)cnc32)cc1 | 2.06 µM [falling, full curve, poor fit] | 2.06 µM [rising, full curve, poor fit]
O=C(Oc1cccccc1=O)c1ccccc1 | 31.6 µM [falling, single point] | 
Cc1cc(C)c(C(=O)Nc2ccc(Br)c(C(F)(F)F)c2)c(C)c1 | 29.1 µM [falling, single point] | 
CCCCNc1nc(N)nc(-c2cc(Cl)ccc2O)n1 | 20.6 µM [falling, partial curve, poor fit] | 

Compound | AC50 [1] | AC50 [2]
Cn1c(SCC(=O)Nc2cccc(Br)c2)nnc1-c1cc2ccccc2o1 | 0.259 µM [falling, full curve, poor fit] | 
CCOC(=O)c1cc(-c2ccccc2)n(CC(=O)Nc2ccccc2OCC)c1C | 0.501 µM [rising, full curve, poor fit] | 
Cc1nc(NC(=O)COC(=O)C2CC2C)c(Cl)cc1Cl (configuration not stated) | 18.4 µM [rising, single point] | 
CCOC(=O)c1cnc(-n2nc(C)cc2C)nc1NC | 11.2 µM [rising, single point] | 35.5 µM [falling, single point]
O=c1[nH]c2ccccc2s1 | 16.4 µM [rising, partial curve] | 
COc1cc(/C=N/NS(=O)(=O)c2ccc3ccccc3c2)ccc1OCc1ccc(C(=O)O)cc1 | 2.51 µM [falling, full curve, poor fit] | 
C/C(=N\NC(=S)NC(C)C)c1ccccc1OC(F)F |  | 35.5 µM [falling, single point]
Cc1ccc(NC(=O)C(NCc2ccccn2)c2ccccc2)cc1 (configuration not stated) | 35.5 µM [falling, single point] | 
C=CCN(CC=C)S(=O)(=O)c1ccc(C(=O)Nc2nc3c(s2)CCc2ccccc2-3)cc1 | 18.4 µM [falling, partial curve] | 
COc1ccc([C@H]2CC(=O)C=C(c3ccc(O)cc3)C2)cc1OC | 9.2 µM [falling, partial curve, poor fit] | 
COc1ccc(CNC(=O)Cc2cn(C)c3ccccc23)c(OC)c1 | 12.6 µM [falling, single point] | 
O=C(CN1CCCN(Cc2ccc(F)cc2)S1(=O)=O)NC1CCCC1 | 6.31 µM [rising, partial curve, poor fit] | 
COCCNC(=S)N1CCN(C(=O)C(=O)Nc2ccc(C(=O)OC)cc2)CC1 | 20.6 µM [falling, single point] | 
Cn1ccnc1SCC(=O)Nc1ccc(Br)cc1C(F)(F)F | 20 µM [rising, single point] | 
Cc1ccc2nc(SCC(=O)N3CCCC3)[nH]c2c1 | 35.5 µM [falling, single point] | 
CC(C)NC(=S)N/N=C/c1c[nH]c2ccccc12 |  | 29.1 µM [falling, single point]
CC(=O)Nc1nnc(SCc2ccccc2F)s1 | 9.2 µM [rising, partial curve] | 
COc1ccc(OC)c(C2C3=C(COC3=O)Nc3cc4c(cc32)OCO4)c1 (configuration not stated) | 0.631 µM [rising, full curve, poor fit] | 0.891 µM [falling, full curve]
O=[N+]([O-])c1ccc2c(c1)C(O)n1nc(-c3ccccc3)nc1S2 (configuration not stated) | 0.891 µM [rising, full curve, poor fit] | 
CC(C)COc1ccc(-c2nn(-c3ccccc3)cc2CO)cc1 | 7.94 µM [rising, partial curve] | 
COc1ccc(C(=O)C2CCCN(C(=O)c3cc(C)on3)C2)cc1F (configuration not stated) | 0.447 µM [rising, full curve, poor fit] | 

Compound | AC50 [1] | AC50 [2]
CC(=O)Oc1ccc2nc(-c3ccco3)oc(=O)c2c1 | 4.47 µM [falling, partial curve] | 
COc1cccc(NC(=O)Nc2ccc3c(c2)CCC3)c1 | 17.8 µM [falling, partial curve, poor fit] | 
COc1ccc(CCC(=O)N2CC(C)OC(C)C2)cc1 (configuration not stated) | 8.2 µM [rising, partial curve, poor fit] | 
Cc1nn(-c2ccccc2)c(Cl)c1/C=N/NC(=O)c1ccccc1NS(=O)(=O)c1cccs1 | 6.51 µM [rising, single point] | 
CC(C)c1ccc2c(c1)c(SC(C)(C)C)c(CC(C)(C)C(=O)O)n2Cc1ccc(Cl)cc1 | 5.62 µM [rising, single point] and 4.11 µM [rising, partial curve, poor fit] | 
CCCOC(=O)c1ccc(NC(=O)c2c(Cl)ccc(Cl)c2OC)cc1 | 29.1 µM [falling, single point] | 
COc1ccc(/C=C/C(=O)NCCCc2ccccc2)cc1 | 32.6 µM [falling, partial curve, poor fit] | 
CCOc1ccc2nc(N/C(N)=N/C(=S)Nc3cccc(OC)c3)nc(C)c2c1 | 20 µM [rising, partial curve, poor fit] | 
Fc1ccc(NC(=S)N2CCCC(c3ccccc3)=N2)cc1 | 10 µM [falling, partial curve, poor fit] | 
Brc1ccc(-c2cn3c(n2)CCc2ccc4cccnc4c2-3)cc1 | 8.91 µM [falling, partial curve, poor fit] | 35.5 µM [falling, single point]
Cc1nn(C)c(C)c1/C=N/N=C1\CCC2C3CCc4cc(O)ccc4C3CCC12C (configuration not stated) | 29.1 µM [rising, single point] | 
Cc1ccc(C)n1-n1c(C)nc2sc(-c3ccccc3)cc2c1=O | 0.461 µM [rising, partial curve, poor fit] | 
CC(C)NCC(=O)C12CC3CC(CC(C3)C1)C2 | 0.631 µM [rising, full curve, poor fit] | 
COC(=O)c1ccc(COC(=O)CNC(=O)c2ccc(-c3ccccc3)cc2)cc1 | 14.6 µM [falling, partial curve] | 
CCOC(=O)C1CCCCN1Cc1cc(Cl)ccc1O (configuration not stated) | 29.1 µM [rising, single point] | 
Cn1c(=O)[nH]c(=O)c2c1nc(NCCCO)n2CCOc1ccccc1 | 31.6 µM [rising, single point] | 
O=C(CCN1C(=O)/C(=C/c2ccccc2Cl)SC1=S)NN1CCOCC1 | 3.55 µM [rising, single point] | 
COc1ccccc1OCC(=O)Nc1ccc(-c2nnc(-c3ccco3)o2)cc1 | 12.6 µM [rising, single point] | 
Nc1c2c(nc3cccc(Cl)c13)N(c1ccccc1)CC2 | 35.5 µM [rising, single point] | 
Cc1ccc(-c2nc(NC(=O)c3nn(C)cc3[N+](=O)[O-])sc2C)cc1 | 4.11 µM [falling, full curve, poor fit] | 
CC(C)(C)OC(=O)C[C@H]1C/C=C\C[C@@H](CC(=O)N[C@H](CO)Cc2ccccc2)C(=O)N2CCC[C@H]2COC1=O | 18.4 µM [rising, single point] | 
